No constants are given. Whether binding was seen depends on the method and setting. In cells and extracts the contact can be indirect. Some entries that bind do so weakly or less than the wild type.
Molecular target: Krüppel-like factor 4 (rat (endogenous in PASMCs)) (UniProt F7F8L9)
Experiment: co-IP; cross co-immunoprecipitation from lysates of PASMCs transfected with Ad-Myadm or Myadm-siRNA: anti-KLF4 resin, blot for KLF4 and SMAD4; anti-SMAD4 resin, blot for SMAD4 and KLF4

Sequences of proteins named here, by UniProt entry; tags and fusion partners are left off.
UniProt F7F8L9: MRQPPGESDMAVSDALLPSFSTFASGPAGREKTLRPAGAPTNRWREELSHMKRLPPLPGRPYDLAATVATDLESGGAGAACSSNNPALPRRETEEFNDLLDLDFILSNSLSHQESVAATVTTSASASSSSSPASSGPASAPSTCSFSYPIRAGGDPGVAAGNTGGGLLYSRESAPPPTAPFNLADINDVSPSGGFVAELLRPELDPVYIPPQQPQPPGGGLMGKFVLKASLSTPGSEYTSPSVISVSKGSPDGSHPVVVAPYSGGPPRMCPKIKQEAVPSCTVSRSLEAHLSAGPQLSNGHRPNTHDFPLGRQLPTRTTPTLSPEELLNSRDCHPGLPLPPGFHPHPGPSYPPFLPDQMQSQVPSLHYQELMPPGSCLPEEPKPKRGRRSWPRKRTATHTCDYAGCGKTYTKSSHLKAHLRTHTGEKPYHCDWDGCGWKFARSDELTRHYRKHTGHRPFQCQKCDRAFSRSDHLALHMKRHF
UniProt O70437: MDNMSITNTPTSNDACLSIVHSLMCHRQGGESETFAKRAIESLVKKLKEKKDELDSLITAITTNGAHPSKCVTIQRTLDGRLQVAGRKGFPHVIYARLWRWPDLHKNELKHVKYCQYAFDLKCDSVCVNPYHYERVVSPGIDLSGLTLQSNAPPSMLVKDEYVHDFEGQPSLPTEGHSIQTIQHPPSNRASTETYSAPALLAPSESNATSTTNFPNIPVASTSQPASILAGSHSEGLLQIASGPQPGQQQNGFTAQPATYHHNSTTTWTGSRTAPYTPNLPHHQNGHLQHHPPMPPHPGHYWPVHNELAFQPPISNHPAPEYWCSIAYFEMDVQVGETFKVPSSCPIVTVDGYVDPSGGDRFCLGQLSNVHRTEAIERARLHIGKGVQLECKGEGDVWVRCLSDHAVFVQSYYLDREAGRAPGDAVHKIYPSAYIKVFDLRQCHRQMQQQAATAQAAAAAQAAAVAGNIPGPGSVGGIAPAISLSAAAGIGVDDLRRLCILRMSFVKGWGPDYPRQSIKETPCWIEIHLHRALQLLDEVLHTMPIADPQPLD

For SMAD4 (from UniProt O70437 1-552), the binding was “binds”.
